Data as given in PubChem BioAssay AID1259308 (NCATS, 2017)
Here is an unselected part of about 59,000 deposited reagents. Of all reagents, about 1,510 (2.6%) are marked active. 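Calls use total luciferase alone and ignore viability, so some active siRNAs may act by altering cell number.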 Not all columns of the deposit are shown.

- Test: 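Candidate targets for better recombinant protein yield in mammalian cells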 (primary screen)
- Cell system: human HEK293 embryonic kidney cells stably expressing firefly luciferase (HEK-CMV-Luc2-Hygro)
- Reagent: single siRNA against human genes, 0.8 pmol siRNA per well
- Duration: 72 h
- Read-out: 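Luciferase light (ONE-Glo) measured on one replicate plate set and viability (CellTiter-Glo) on the other, scaled to a negative control siRNA, with robust z-scores and luciferase per cell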
- Direction: total luciferase, z-score: higher = more reporter protein produced
- Call rule: 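An siRNA counts as active if its total luciferase robust z-score exceeds 3; genes with two or more such siRNAs out of three were retested with fresh siRNAs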
- Calls: active = raised luciferase; inactive = no rise

total luciferase, z-score, by target gene and reagent
POFUT1 (GeneID 23509): SID160743503 2.51 inactive; SID160743610 -0.37 inactive; SID160743715 -1.39 inactive
FASTKD2 (GeneID 22868): SID160732255 -0.589 inactive; SID160732256 -1.41 inactive; SID160732258 -0.443 inactive
PRR14L (GeneID 253143): SID160762054 -1.72 inactive; SID160762057 0.545 inactive; SID160762058 2.27 inactive
OR4A16 (GeneID 81327): SID160734999 -1.51 inactive; SID160750714 -1.11 inactive; SID160750715 1.13 inactive
CD52 (GeneID 1043): SID160732277 1.07 inactive; SID160741395 1.42 inactive; SID160741405 -0.336 inactive
PEAK1 (GeneID 79834): SID160749557 0.175 inactive; SID160749558 2.78 inactive; SID160749559 1.11 inactive
SMDT1 (GeneID 91689): SID160735189 0.541 inactive; SID160735190 -1.23 inactive; SID160754069 0.178 inactive
ZMYM6 (GeneID 9204): SID160721713 -0.771 inactive; SID160721714 -0.597 inactive; SID160721715 0.678 inactive

Entries listed so far whose gene name begins with P or p:
total luciferase, z-score, by target gene and reagent
POFUT1 (GeneID 23509): SID160743503 2.51 inactive; SID160743610 -0.37 inactive; SID160743715 -1.39 inactive
PRR14L (GeneID 253143): SID160762054 -1.72 inactive; SID160762057 0.545 inactive; SID160762058 2.27 inactive
PEAK1 (GeneID 79834): SID160749557 0.175 inactive; SID160749558 2.78 inactive; SID160749559 1.11 inactive

The list goes on.
total luciferase, z-score, by target gene and reagent
CABP7 (GeneID 164633): SID160760121 0.349 inactive; SID160760122 -0.0477 inactive; SID160760123 0.303 inactive
TMPRSS6 (GeneID 164656): SID160760124 1.19 inactive; SID160760125 0.999 inactive; SID160760126 -0.305 inactive
EIF4A2 (GeneID 1974): SID160759244 0.0656 inactive; SID160759255 -0.382 inactive; SID160759266 -0.715 inactive
HLA-A (GeneID 3105): SID160731063 -0.488 inactive; SID160731064 0.524 inactive; SID160774972 -1.09 inactive
MARS1 (GeneID 4141): SID160776977 0.0652 inactive; SID160776978 1.83 inactive; SID160776979 0.19 inactive
LOC646030 (GeneID 646030): SID160769768 -0.933 inactive; SID160769769 1.9 inactive; SID160769771 0.19 inactive; SID160769776 1.16 inactive; SID160769777 -0.109 inactive; SID160769778 0.306 inactive
TRERF1 (GeneID 55809): SID160744416 -0.156 inactive; SID160744417 0.356 inactive; SID160744418 2.18 inactive
AAK1 (GeneID 22848): SID160732009 -0.326 inactive; SID160732017 -0.234 inactive; SID160732025 -0.471 inactive
NDP (GeneID 4693): SID160777829 4.06 active; SID160777830 -0.412 inactive; SID160777832 -0.0878 inactive
ANKFY1 (GeneID 51479): SID160740868 -1.08 inactive; SID160740869 0.667 inactive; SID160740872 1.43 inactive
